The record followed here is the supplement of paper PMC10849652.

Amino acid sequences for entries named in this document (tags omitted). A change or cut given only in a name is not applied to a line headed by its entry.
UniProt Q9NP77: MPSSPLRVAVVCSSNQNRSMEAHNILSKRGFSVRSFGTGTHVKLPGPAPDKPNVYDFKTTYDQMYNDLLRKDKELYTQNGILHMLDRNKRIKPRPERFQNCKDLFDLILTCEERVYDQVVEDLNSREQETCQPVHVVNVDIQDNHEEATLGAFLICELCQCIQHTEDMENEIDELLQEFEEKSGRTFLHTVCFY
UniProt Q15005: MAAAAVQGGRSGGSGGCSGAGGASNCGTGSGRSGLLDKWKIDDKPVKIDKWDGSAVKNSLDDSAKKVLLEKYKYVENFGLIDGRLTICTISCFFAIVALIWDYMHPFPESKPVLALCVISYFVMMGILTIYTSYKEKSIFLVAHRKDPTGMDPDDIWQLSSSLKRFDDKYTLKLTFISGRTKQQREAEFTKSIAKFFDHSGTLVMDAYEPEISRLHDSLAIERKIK
UniProt P42226: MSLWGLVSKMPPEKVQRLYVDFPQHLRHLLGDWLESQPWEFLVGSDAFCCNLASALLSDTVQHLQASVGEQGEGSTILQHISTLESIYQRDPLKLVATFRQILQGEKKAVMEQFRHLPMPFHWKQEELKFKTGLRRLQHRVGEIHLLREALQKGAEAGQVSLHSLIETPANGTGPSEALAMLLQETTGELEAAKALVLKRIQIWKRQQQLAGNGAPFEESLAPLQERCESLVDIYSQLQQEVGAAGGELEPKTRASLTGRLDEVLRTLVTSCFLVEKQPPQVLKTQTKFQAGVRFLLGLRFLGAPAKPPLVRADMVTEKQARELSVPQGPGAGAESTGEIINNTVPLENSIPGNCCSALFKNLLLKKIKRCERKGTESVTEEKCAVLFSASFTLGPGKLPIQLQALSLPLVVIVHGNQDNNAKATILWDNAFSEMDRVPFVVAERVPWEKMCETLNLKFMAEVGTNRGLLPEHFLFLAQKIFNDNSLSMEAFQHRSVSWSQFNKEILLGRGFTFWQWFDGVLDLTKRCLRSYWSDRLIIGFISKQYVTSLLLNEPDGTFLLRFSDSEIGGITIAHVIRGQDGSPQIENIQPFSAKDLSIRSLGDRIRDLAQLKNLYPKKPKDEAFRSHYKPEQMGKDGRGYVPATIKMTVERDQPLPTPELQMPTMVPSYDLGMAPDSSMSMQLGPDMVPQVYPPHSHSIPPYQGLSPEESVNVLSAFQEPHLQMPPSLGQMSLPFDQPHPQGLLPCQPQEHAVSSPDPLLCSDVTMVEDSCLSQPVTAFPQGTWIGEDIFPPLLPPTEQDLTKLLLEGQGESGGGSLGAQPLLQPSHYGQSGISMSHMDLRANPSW
UniProt Q9NYA1, whole entry, looked up: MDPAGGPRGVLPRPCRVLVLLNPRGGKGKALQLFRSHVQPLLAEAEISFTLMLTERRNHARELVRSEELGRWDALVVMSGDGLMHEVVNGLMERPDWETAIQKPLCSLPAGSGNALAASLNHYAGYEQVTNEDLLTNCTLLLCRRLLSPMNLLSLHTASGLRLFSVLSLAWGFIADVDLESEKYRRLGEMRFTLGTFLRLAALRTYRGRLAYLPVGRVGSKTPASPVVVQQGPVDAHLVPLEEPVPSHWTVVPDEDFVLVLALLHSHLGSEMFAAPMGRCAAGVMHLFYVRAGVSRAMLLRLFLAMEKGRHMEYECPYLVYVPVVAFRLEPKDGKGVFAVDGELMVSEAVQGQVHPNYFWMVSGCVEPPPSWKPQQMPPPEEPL
UniProt O95630, whole entry, looked up: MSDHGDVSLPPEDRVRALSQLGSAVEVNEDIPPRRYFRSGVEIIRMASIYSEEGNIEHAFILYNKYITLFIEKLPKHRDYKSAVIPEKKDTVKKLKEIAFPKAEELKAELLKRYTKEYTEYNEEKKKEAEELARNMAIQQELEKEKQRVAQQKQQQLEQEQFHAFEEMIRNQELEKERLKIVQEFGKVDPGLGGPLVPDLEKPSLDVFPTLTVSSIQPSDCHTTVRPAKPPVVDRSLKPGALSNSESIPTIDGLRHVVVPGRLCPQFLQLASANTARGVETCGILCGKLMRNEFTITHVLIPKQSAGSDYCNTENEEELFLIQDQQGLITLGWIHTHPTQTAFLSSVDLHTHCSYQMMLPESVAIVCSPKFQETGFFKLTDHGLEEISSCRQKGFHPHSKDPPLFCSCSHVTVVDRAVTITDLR
UniProt Q8WW59: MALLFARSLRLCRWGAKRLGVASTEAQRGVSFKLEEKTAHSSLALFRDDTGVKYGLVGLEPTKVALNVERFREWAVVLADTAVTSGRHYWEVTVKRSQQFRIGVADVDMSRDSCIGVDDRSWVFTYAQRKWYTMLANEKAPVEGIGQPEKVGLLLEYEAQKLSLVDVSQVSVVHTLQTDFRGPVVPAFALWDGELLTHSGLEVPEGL
UniProt Q9UQ90: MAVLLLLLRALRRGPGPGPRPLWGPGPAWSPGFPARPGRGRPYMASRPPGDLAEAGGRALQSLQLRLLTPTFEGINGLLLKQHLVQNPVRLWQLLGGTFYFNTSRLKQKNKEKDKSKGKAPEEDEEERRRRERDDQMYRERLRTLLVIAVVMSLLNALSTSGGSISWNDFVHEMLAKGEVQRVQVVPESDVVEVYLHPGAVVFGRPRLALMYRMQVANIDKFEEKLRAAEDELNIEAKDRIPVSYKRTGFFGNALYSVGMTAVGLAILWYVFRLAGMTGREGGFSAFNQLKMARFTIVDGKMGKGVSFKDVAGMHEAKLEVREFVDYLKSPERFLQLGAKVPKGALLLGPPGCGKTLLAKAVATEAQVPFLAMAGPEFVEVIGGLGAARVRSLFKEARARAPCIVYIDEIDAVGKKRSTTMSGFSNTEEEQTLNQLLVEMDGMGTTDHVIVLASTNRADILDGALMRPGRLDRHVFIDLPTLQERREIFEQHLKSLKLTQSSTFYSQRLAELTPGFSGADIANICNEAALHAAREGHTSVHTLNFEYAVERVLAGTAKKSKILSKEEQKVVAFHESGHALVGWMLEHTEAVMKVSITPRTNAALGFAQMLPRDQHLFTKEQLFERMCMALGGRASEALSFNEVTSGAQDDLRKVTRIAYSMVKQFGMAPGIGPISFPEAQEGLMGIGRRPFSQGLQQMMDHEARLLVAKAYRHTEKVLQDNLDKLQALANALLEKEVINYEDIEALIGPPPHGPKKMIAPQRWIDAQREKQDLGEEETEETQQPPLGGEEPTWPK
UniProt Q9H2V7: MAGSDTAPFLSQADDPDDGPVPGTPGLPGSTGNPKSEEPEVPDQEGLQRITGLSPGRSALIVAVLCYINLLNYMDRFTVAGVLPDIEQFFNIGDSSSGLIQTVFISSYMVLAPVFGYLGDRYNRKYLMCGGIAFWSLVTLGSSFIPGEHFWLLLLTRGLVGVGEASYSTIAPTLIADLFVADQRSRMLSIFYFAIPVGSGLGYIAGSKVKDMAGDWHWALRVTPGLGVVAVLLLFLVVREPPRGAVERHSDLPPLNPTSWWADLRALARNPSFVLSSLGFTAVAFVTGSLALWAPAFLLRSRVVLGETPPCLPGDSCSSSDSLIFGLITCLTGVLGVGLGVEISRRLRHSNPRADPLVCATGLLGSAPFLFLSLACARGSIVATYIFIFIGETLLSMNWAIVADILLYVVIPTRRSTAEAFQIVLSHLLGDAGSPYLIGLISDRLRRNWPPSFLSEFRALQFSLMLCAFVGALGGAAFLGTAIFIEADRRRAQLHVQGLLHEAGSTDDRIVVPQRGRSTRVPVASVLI
UniProt Q9NRC1: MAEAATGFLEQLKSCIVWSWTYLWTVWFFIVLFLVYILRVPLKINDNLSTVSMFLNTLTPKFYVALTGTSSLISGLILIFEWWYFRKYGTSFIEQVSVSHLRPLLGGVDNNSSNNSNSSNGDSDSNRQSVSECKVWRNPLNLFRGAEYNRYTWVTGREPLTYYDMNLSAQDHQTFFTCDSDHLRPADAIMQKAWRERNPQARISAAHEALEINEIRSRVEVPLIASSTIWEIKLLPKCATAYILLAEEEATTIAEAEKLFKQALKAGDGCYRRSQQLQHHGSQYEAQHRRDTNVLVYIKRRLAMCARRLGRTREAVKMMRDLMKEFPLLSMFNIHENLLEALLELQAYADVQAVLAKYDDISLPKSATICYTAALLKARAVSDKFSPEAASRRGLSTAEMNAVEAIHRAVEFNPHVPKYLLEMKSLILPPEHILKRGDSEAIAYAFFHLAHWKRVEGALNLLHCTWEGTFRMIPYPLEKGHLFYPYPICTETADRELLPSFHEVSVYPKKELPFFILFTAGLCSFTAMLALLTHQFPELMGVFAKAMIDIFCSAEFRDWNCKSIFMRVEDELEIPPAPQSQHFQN
UniProt P52630: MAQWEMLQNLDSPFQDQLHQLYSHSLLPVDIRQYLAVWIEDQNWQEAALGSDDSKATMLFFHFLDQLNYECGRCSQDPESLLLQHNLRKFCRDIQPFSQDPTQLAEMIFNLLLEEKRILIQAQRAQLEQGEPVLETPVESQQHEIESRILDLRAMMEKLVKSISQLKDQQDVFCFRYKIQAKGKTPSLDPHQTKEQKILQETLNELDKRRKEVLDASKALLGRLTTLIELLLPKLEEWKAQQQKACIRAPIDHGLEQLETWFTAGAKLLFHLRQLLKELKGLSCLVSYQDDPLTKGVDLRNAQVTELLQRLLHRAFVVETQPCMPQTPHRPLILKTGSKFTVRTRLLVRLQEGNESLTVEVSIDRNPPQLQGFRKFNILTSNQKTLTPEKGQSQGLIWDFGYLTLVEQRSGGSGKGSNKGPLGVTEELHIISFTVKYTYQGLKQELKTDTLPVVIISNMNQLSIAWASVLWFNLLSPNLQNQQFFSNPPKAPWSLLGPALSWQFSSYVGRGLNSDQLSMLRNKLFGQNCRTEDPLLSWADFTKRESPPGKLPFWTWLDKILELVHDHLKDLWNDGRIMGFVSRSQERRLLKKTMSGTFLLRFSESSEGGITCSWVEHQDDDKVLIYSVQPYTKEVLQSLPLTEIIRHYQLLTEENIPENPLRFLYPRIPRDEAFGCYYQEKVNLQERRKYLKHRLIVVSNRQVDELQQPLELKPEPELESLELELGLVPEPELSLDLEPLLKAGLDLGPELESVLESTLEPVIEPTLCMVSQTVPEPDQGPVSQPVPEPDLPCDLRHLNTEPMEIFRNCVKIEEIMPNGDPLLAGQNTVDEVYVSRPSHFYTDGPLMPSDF
UniProt Q9GZT4: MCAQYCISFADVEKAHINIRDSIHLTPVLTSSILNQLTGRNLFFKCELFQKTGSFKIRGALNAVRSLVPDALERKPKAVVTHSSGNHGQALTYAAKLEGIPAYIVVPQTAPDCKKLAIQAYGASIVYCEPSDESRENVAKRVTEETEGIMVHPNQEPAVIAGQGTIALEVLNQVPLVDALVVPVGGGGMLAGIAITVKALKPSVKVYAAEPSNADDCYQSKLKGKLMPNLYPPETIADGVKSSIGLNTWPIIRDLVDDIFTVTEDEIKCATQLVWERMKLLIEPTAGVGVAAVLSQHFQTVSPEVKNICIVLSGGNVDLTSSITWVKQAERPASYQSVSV
UniProt Q9NUL3: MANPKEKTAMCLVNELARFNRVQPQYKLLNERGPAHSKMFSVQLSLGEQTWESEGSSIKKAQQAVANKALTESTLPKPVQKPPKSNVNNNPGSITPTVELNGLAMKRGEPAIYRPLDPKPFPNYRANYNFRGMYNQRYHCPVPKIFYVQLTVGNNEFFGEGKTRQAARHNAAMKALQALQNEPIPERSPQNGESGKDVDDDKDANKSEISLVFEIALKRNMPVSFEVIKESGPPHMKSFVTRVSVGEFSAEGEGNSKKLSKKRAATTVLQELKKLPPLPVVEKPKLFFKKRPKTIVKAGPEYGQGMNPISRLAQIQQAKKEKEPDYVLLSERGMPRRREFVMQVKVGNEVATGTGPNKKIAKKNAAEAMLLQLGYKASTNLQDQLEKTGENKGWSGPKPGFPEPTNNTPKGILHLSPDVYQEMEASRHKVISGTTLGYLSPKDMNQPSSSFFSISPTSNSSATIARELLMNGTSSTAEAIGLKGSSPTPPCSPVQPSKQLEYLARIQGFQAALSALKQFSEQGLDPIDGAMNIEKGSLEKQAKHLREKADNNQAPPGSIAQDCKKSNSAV
UniProt O00506, whole entry, looked up: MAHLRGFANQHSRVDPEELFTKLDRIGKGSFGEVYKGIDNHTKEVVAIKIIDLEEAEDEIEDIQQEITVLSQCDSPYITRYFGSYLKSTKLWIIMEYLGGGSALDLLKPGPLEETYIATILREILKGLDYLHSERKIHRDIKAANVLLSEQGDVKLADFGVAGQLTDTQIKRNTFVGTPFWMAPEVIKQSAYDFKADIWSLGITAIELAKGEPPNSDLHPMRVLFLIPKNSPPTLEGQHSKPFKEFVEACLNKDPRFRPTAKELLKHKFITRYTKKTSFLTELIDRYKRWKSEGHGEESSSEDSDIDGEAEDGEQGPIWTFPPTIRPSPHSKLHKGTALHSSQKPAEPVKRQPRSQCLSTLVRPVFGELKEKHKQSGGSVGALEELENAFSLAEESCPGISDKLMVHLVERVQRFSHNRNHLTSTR

Holding throughout (assay): log2 fold change, soluble protein after heating vs DMSO (PISA); higher = thermal stabilisation; K562 cells, 10 uM, 30 min; active = over 0.2 and 3.5 SD of the protein, either way, in both replicates (recomputed)
Compound in assay [1]: COC1=CC=C(C=C1)CN2C=CC3=C2C=C(C=C3)C(=O)NO
A digest of the protocol: (§1)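 K562 cells at 2×10^6 cells/mL were exposed to 10 μM compound for 30 min, then aliquots were heated for 3 min across 48°C-58°C, pooled, and extracted in PBS containing 0.5% NP-40 at 4°C. The supernatant after 21,000xg for 90 min was taken as soluble protein and measured by TMTpro 16plex LC-MS/MS with channel sums equalised. Thermal stability is reported relative to control samples, with values from duplicates. Fold changes are given on a log2 scale.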

Compound in assay [2]: CON(C)C(=O)N1N=C(c2cc(F)ccc2F)S[C@@]1(CCCN)c1ccccc1 [filanesib]
A digest of the protocol: as §1

Compound in assay [3]: CO[C@H]1C[C@@H]2CC[C@@H](C)[C@@](O)(O2)C(=O)C(=O)N2CCCC[C@H]2C(=O)O[C@H]([C@H](C)C[C@@H]2CC[C@H](n3cnnn3)[C@H](OC)C2)CC(=O)[C@H](C)/C=C(\C)[C@@H](O)[C@@H](OC)C(=O)[C@H](C)C[C@H](C)/C=C/C=C/C=C/1C [zotarolimus]
The essentials: as §1

Compound in assay [4]: COc1cc(C(=O)O)ccc1NC(=O)[C@@H]1N[C@@H](CC(C)(C)C)[C@](C#N)(c2ccc(Cl)cc2F)[C@H]1c1cccc(Cl)c1F [idasanutlin]
A digest of the protocol:
as §1

Compound in assay [5]: COc1cc(Nc2ncc3c(n2)-c2ccc(Cl)cc2C(c2c(F)cccc2OC)=NC3)ccc1C(=O)O [alisertib]
A digest of the protocol: as §1

Compound in assay [6]: COc1cc2nc(-c3cc(F)ccc3O)nc(N[C@@H]3CNC[C@H]3C(C)(C)O)c2cc1OC
The essentials: as §1

Compound in assay [7]: COc1cccc2cc(-c3nc([C@H]4CC[C@H](C(=O)O)CC4)n4ncnc(N)c34)[nH]c12
The essentials:
as §1

Compound in assay [8]: CS(=O)(=O)CCNCc1ccc(-c2ccc3ncnc(Nc4ccc(OCc5cccc(F)c5)c(Cl)c4)c3c2)o1 [lapatinib]
A digest of the protocol: as §1

Compound in assay [9]: CS(=O)(=O)N1CCN(Cc2cc3nc(-c4cccc5[nH]ncc45)nc(N4CCOCC4)c3s2)CC1 [pictilisib]
The essentials: as §1

Compound in assay [10]: COc1cc2ncnc(Nc3ccc(F)c(Cl)c3)c2cc1OCCCN1CCOCC1 [gefitinib]
A digest of the protocol:
as §1

Some of the results follow.

For SSU72 (UniProt Q9NP77), the log2 fold change is inactive: 0.036 in assay [1]; inactive: -0.009 in [2]; inactive: 0.069 in [3]; inactive: -0.015 in assay [4]; inactive: 0.161 in [5]; inactive: 0.044 in assay [6]. Besides, the log2 fold change was inactive: 0.19 in assay [7], inactive: -0.073 in assay [8] and inactive: 0.12 in [9].
Take SPCS2 (UniProt Q15005): the log2 fold change in assay [1] was active: 0.5; in [2], inactive: -0.061; in assay [3], inactive: 0.018; in assay [4] it was inactive: -0.039; in assay [5], inactive: 0.008; in assay [6], inactive: 0.092. Moreover, the log2 fold change was inactive: 0.03 in [10], inactive: -0.021 in assay [7], inactive: 0.002 in assay [8] and inactive: -0.006 in [9].
As for STAT6 (UniProt P42226), the log2 fold change in [1] is inactive: 0.019; in assay [2], inactive: 0.091; in assay [3] it was inactive: 0.055; in [4] it was inactive: 0.102; in assay [5] it was inactive: 0.094; in [6], inactive: 0.002. Also, the log2 fold change is inactive: 0.014 in assay [10], inactive: 0.155 in assay [7], inactive: -0.016 in assay [8] and inactive: -0.13 in [9].
As to SPHK1 isoform 2 (UniProt Q9NYA1), the log2 fold change in assay [1] is inactive: -0.11; in assay [2], inactive: -0.046; in [3], inactive: -0.002; in assay [4], inactive: -0.146; in assay [5], inactive: -0.039; in assay [6] it was inactive: 0.117. The log2 fold change was inactive: -0.021 in assay [10], inactive: 0.038 in [7], inactive: 0.104 in assay [8] and inactive: 0.05 in [9].
As to STAMBP (UniProt O95630), the log2 fold change was inactive: -0.011 in assay [1]; inactive: 0.021 in [2]; inactive: 0.049 in assay [3]; inactive: -0.001 in assay [4]; inactive: -0.053 in assay [5]; inactive: 0.061 in [6]. Besides, the log2 fold change in [10] was inactive: 0.025; in assay [7] it was inactive: -0.067; in [8], inactive: -0.04; in assay [9], inactive: 0.045.
On to SPRYD4 (UniProt Q8WW59), for which the log2 fold change in assay [1] was inactive: -0.077; in assay [2], inactive: -0.034; in assay [3], inactive: -0.018; in [4], inactive: -0.022; in assay [5], inactive: 0.096; in [6] it was inactive: 0.009. Further, the log2 fold change was inactive: 0 in assay [10], inactive: 0.04 in assay [7], inactive: -0.048 in [8] and inactive: 0.06 in assay [9].
Turning to SPG7 (UniProt Q9UQ90), the log2 fold change in assay [1] is inactive: -0.032; in assay [2] it was inactive: -0.05; in assay [3], inactive: -0.058; in [4], inactive: 0.019; in assay [5], inactive: 0.026; in assay [6], inactive: 0.03. Further, the log2 fold change was inactive: 0.031 in [10], inactive: 0.063 in assay [7], inactive: 0.006 in [8] and inactive: 0.029 in [9].
With SPNS1 (UniProt Q9H2V7), the log2 fold change in assay [1] is inactive: 0.02; in [2] it was inactive: -0.057; in assay [3], inactive: -0.039; in [4] it was inactive: -0.081; in [5], inactive: -0.058; in assay [6] it was inactive: 0.104. Moreover, the log2 fold change in [10] is inactive: -0.002; in assay [7], inactive: 0.045; in assay [8] it was inactive: 0.032; in [9], inactive: 0.02.
In the case of ST7 (UniProt Q9NRC1), the log2 fold change in assay [1] is inactive: 0.01; in [2], inactive: 0.018; in [3] it was inactive: -0.014; in assay [4], inactive: -0.029; in assay [5], inactive: -0.101; in assay [6], inactive: -0.063. The log2 fold change in [10] is inactive: 0.051; in assay [7] it was inactive: -0.016; in assay [8], inactive: -0.072; in assay [9], inactive: -0.037.
Consider STAT2 (UniProt P52630), for which the log2 fold change in [1] was inactive: -0.168; in [2], inactive: 0.085; in assay [3] it was inactive: 0.039; in assay [4], inactive: 0.12; in assay [5], inactive: -0.01; in assay [7], inactive: -0.535. Moreover, the log2 fold change in assay [9] is inactive: -0.049.
In the case of SRR (UniProt Q9GZT4), the log2 fold change in assay [1] was inactive: 0.051; in [2], inactive: -0.201; in [4], inactive: 0.004; in [5], inactive: 0.011; in [6] it was inactive: 0; in assay [10], inactive: -0.022. Also, the log2 fold change is inactive: 0.103 in [7], inactive: 0.003 in assay [8] and inactive: -0.003 in [9].
Consider STAU2 (UniProt Q9NUL3), for which the log2 fold change was inactive: 0.008 in [1]; inactive: 0.377 in assay [2]; inactive: 0.084 in assay [3]; inactive: 0.242 in assay [4]; inactive: 0.158 in [5]; inactive: 0.205 in [6]. Also, the log2 fold change in assay [7] was inactive: -0.221; in [8], inactive: -0.137; in assay [9], inactive: 0.016.
Consider STK25 (UniProt O00506), for which the log2 fold change in assay [1] was inactive: -0.06; in [2], inactive: -0.006; in [3] it was inactive: -0.039; in [4], inactive: 0.006; in [5] it was inactive: -0.055; in assay [6] it was inactive: 0.076. Moreover, the log2 fold change is inactive: -0.061 in assay [10], inactive: 0.038 in assay [7], inactive: -0.047 in assay [8] and inactive: 0.053 in assay [9].
STAT5B (UniProt P51692): the log2 fold change in assay [1] was inactive: 0.13; in [2] it was inactive: -0.036; in assay [3], inactive: 0.112; in assay [4], inactive: 0.086; in [5] it was inactive: -0.038; in assay [6] it was inactive: -0.115. Moreover, the log2 fold change in assay [10] is inactive: 0.046; in assay [7], inactive: -0.094; in assay [8], inactive: 0.029; in assay [9], inactive: -0.148.
